Reference: PubChem BioAssay AID602296 (Broad Institute, 2012)
Screen size: about 2,000 compounds; about 190 (9.5%) were called active. Roughly 14% stayed inconclusive and do not appear here.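 Rule for the calls: active = fitted activation curve crossing 40% at a concentration no higher than the sample's top valid tested dose; inconclusive = flat fitted curve at 30% to 70% activation, or poor curve fit; inactive = signal decrease, flat curve within 30%, or the rest.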 The list lacks most of the strong results.

test: sustained heat shock response element induction – cell-based, mouse, luciferase, cherry-pick, dose, confirmation (AID 602296); details: NIH3T3-HGL HSF-1 response element luciferase, 48 h; at 26 µM (top of the series) unless noted;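 note: test compounds applied by themselves with no MG132 co-treatment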

activation, inactive:
COc1ccc(CCNCc2cc(C)n(-c3ccc(OC)cc3)c2C)cc1 -9.47%
O=C(O)CCn1[nH]c(=O)ccc1=O -2.04%
O=C(COC(=O)COc1cccc(Br)c1)Nc1c(Cl)cccc1Cl -10.5%
Cc1ccc(Cn2cc(S(=O)(=O)c3ccc(Cl)cc3)c(=O)c3cc(F)ccc32)cc1 -16%
CN1CCN(C(=O)/C(=C/c2cccnc2)NC(=O)c2cccc(Br)c2)CC1 -1.28%
COC(=O)[C@@H](NC(=O)NC1CCCc2ccccc21)C(C)C (stereo partly specified) 18.5%
C=CCNC(=S)NNC(=O)c1cccn(Cc2ccc(Cl)c(Cl)c2)c1=O 2.28%
Cc1cccc(N2C(=N)SCC2=O)c1C -10.8%
CCS(=O)(=O)Nc1ccc2[nH]c(=O)[nH]c2c1 3.52%
CCOc1ccc(OCCC(=O)OCC(=O)N2CCN(S(=O)(=O)c3ccc(Cl)cc3)CC2)cc1 -103%
Cc1ccc(/C=C/C(=O)c2ccccc(=O)c2O)cc1C 189%
C=CCn1c(C2CCCCC2)n[nH]c1=S -1.72%
O=C(CCN1C(=O)c2ccccc2C1=O)Nc1sc2c(c1C(=O)NCC1CCCO1)CCC2 (stereo unspecified) 12.4%
CCOc1ccc(S(=O)(=O)NNC(=S)Nc2ccc(Br)cc2)cc1 0.555%
CC(=O)c1cccc(N=Cc2c(O)c3ccccc3oc2=O)c1 27.1%
Cc1csc(-c2cnn(-c3ccccc3)c2NC(=O)c2cccc(C(F)(F)F)c2)n1 -1.93%
CC1CC(=O)N(c2ccc(Br)cc2)C(=O)C1 -2.72%
CC(=O)Nc1ccc(N2C(=O)C3C4CC(=O)C(c5ccccc54)C3C2=O)cc1 (stereo unspecified) -4.5%
CCOC(=O)Nc1ccc2c(c1)N(C(=O)CCN1CCOCC1)c1ccccc1S2=O (stereo unspecified) -22.4%
COc1ccc(CNC(=O)Oc2ccccc2)cc1Cl 3.54%
COc1ccc(F)cc1S(=O)(=O)Nc1ccc2c(c1)OCO2 -1.5%
CCCC(C(=O)NCc1ccco1)N(C(=O)CNS(=O)(=O)c1ccc(Cl)cc1)C1CCCC1 (stereo unspecified) -5.22%
CCCOC(=O)c1ccc(Oc2cn[nH]c2-c2ccc(O)cc2O)cc1 3.1%
CSc1nc(S(=O)(=O)c2ccc(C)cc2)c(Cl)s1 4.27%
COc1ccc(C(=O)n2nc(-c3ccc(Cl)cc3)nc2N)cc1OC 10.7%
Cc1ccc(Cl)c2c1=NC(=O)C=2c1[nH]c(=S)[nH]c1O -16.3%
CCCN(CCC)CCCNC(=O)CS(=O)Cc1nc(-c2ccc(OC)c(OC)c2)oc1C (stereo unspecified) -0.016%
O=C(c1cn(CC(=O)N2CCCCC2)c2ccccc12)C1CC1 -0.249%
Cc1nn(Cc2ccccc2Cl)c(C)c1NC(=O)CCCn1nc([N+](=O)[O-])c(Cl)c1C -5.26%
CCOC(=O)c1nnc(-c2ccccc2)nc1Sc1ccccc1Cl -101%
COc1cccc(CSc2nnc(C(F)(F)F)n2Cc2ccc(F)cc2)c1 -2.57%
O=C(NCCc1nc2ccccc2[nH]1)/C(=C/c1ccc(F)cc1)NC(=O)c1ccco1 7.33%
COc1ccc(S(=O)(=O)N(C)c2ccc(C(=O)NCc3ccccn3)cc2)cc1 -7.8%
CCC(=O)Nc1ccccc1C(=O)OCC(=O)c1ccccc1 -72.4%
Cc1cc(OCC(=O)N(Cc2ccco2)C2CCS(=O)(=O)C2)cc(C)c1Cl (stereo unspecified) 5.75%
COc1ccc(C2NC(=O)CCC2[N+](=O)[O-])c(OC)c1 (stereo unspecified) -2.53%
Cc1nn(C)cc1/C=N\NC(=O)c1ccc2c(c1)c(C)c(C)n2Cc1ccccc1 -36.8%
CCOC(=O)Cn1c(S(=O)(=O)Cc2ccc(F)cc2)nc(-c2ccccc2)c1-c1ccccc1 -37%
CCn1cc([N+](=O)[O-])c(C(=O)N2N=C(c3ccc(Cl)c(Cl)c3)CC2c2ccccc2O)n1 (stereo unspecified) -83.2%
Cc1ccc(C(=O)Oc2oc(-c3ccccc3)nc2C=Nc2ccc(N(C)C)cc2)cc1 -59%
CCOC(=O)C1=C(c2ccc(OC)cc2)C(=O)c2ccccc2C1=O -99.7%
Cc1nc2cc3nc(C(F)(F)F)[nH]c3cc2[nH]1 -1.68%
C=CCn1c(=O)c2c3c(sc2n2c(Nc4ccccc4)nnc12)CCCC3 -63%
CS(=O)(=O)c1sc(C#N)c2c1C(=O)CC(c1ccccc1)C2 (stereo unspecified) -102%
O=C(Cc1c(O)c2ccccc2oc1=O)c1ccc(C(F)(F)F)cc1 9.57%
COc1cccc(NC(=O)CN2C(=O)COc3ccc(S(=O)(=O)N4CCC(C)CC4)cc32)c1 -21.1%
O=C1NN(c2ccccc2)C(=O)/C1=C\c1ccc2c(c1)OCO2 5.08%
Cc1ccc(O)c(NC(=O)CSc2n[nH]c(-c3ccccc3)n2)c1 -16.8%
COC(=O)[C@H](CCSC)NC(=O)Nc1cccc(C)c1C -4.71%
O=[N+]([O-])c1ccc(Sc2nc3ccccc3o2)c([N+](=O)[O-])c1 -101%
Brc1ccc(CSc2nnc(-c3ccccn3)n2Cc2ccco2)cc1 -64.8%
COc1cc(C(Nc2ccccn2)c2ccc3ccc(C)nc3c2O)cc(OC)c1O (stereo unspecified) -95.5%
CC(C)CC(NS(=O)(=O)c1ccc2c(c1)oc(=O)n2C)C(=O)NC1CCCc2ccccc21 (stereo unspecified) 1.38%
CCN(C(=O)c1cccc(S(=O)(=O)N2CCCCC2)c1)C1CCS(=O)(=O)C1 (stereo unspecified) 6.03%
COc1ccc(C(=O)/C=C/c2ccc(OC)c(Cn3nnc4ccccc43)c2)cc1 36.6%
O=C(Nc1ccc(Nc2ccccc2)cc1)c1cc([N+](=O)[O-])ccc1Cl -101%
CC1CN(C(=O)CS(=O)(=O)Cc2ccccc2)CC(C)O1 (stereo unspecified) 5.95%
COC(=O)Cn1c2ccc(OC)cc2c2nc(C)sc21 -3.21%
COc1cccc(-c2nc(N3CCN(c4ccccc4)CC3)c3ccccc3n2)c1O 22.3%
COCCNC(=O)/C(C#N)=C/c1ccc(OC(=O)c2cccs2)c(OC)c1 -13.7%
Cc1ccc(NNC(=O)c2cccs2)cc1Cl -34.3%
COc1cc2c3c(c1OC)C1(C=CC(=O)C=C1)CC3N(C(=O)c1ccccc1)CC2 (stereo unspecified) -1.28%
CCc1cc2c(SCC#N)ncnc2s1 11.3%
COc1ccccc1-c1ccc(SCC(=O)Nc2cc(C)on2)nn1 5.23%
COc1ccc2c(C)cc(N3CCCCCC3)nc2c1 -3.9%
NCCc1nnc(SCc2ccc(F)cc2)o1 3.81%
N#Cc1cc(Oc2cccc3cccnc23)c(-n2nnc3ccccc32)cc1C#N -101%
N#CC1=C(N)Oc2c(O)cc3ccccc3c2C1c1ccsc1 (stereo unspecified) -50%
O=C(CSc1cc(Cl)ccc1Cl)NCC(=O)Nc1ccc(F)c(F)c1F -0.799%
Cc1cc2nc3ccc(=[N+](C)C)cc-3sc2cc1N -82.9%
CCn1c(=O)n(CC)c2cc(S(=O)(=O)Nc3ccccc3C)c(C)cc21 -35.8%
CCCc1cc(=O)oc2c3c(cc(OCC(=O)N[C@@H](C)C(=O)O)c12)OC(C)(C)CC3 -8.19%
CCOC(=O)c1c(NC(=O)CSc2nc3cc(Cl)ccc3c(=O)n2Cc2ccco2)sc(C(=O)N(C)C)c1C -29.4%
S=C(c1cn(Cc2ccc(Br)cc2)c2ccccc12)N1CCOCC1 -21.8%
COc1ccc(C2CC(=O)C3=C(C2)Nc2ncnn2C3c2ccccc2)cc1 (stereo unspecified) -9.17%
Cc1ccc2c(CN3CCN(S(=O)(=O)/C=C/c4ccccc4)CC3)cc(=O)oc2c1 -1.07%
CCN(CCCNC(=O)CCCN1C(=O)COc2ccc(C)cc21)c1cccc(C)c1 -34.6%
Cc1ccc(CNC(=O)Cn2ccc3ccccc3c2=O)o1 10.8%
Cc1ccc(CN2CCN(/N=C/c3ccc(C)s3)CC2)c(C)c1 15.4%
CCN(CC)S(=O)(=O)c1ccc(OC)c(NC(=O)c2cc3c(=O)n4ccccc4nc3s2)c1 13.6%
O=c1[nH]c(CCl)nc2cc(-c3ccc(F)cc3)sc12 -75.9%
COc1cc2c(cc1OC)C(C)N(S(=O)(=O)c1cnc(Cl)c(Cl)c1)CC2 (stereo unspecified) -29.7%
O=C(CSc1nc(O)cc(=O)n1-c1ccccc1)Nc1ccc2c3c(cccc13)CC2 -3.56%
COC(=O)c1cc(OC)c(OC)cc1NC(=S)N1CCCC1 1.22%
CCOC(=O)/C=C/C(=O)OCC(=O)NC(c1ccccc1)c1ccccc1 -43.9%
CCOC(=O)CSc1nc2c(sc3ccc([N+](=O)[O-])cc32)c(=O)n1Cc1ccco1 -15.3%
Cc1ccccc1N=C1SC(CC(=O)Nc2ccc3ccccc3c2)C(=O)N1Cc1ccccn1 (stereo unspecified) -68.6%
COC(=O)N1C(=O)[C@@](c2ccccc2)(C2CCCC2)N1C(=O)OC 1.01%
CCc1ccccc1NC(=O)COc1ccc2c(=O)c(Oc3cc(C)ccc3C)coc2c1 -23.8% [at 12 µM]
COc1ccc(CNC2CCSc3ccccc32)cc1OC (stereo unspecified) -9.8%
Oc1ccc(C2C[C@H]3CC[C@@H]2C3)cc1O (stereo partly specified) -46.2%

Structural class, those above containing a nitro group on carbon.
activation, inactive:
Cc1nn(Cc2ccccc2Cl)c(C)c1NC(=O)CCCn1nc([N+](=O)[O-])c(Cl)c1C -5.26%
COc1ccc(C2NC(=O)CCC2[N+](=O)[O-])c(OC)c1 (stereo unspecified) -2.53%
CCn1cc([N+](=O)[O-])c(C(=O)N2N=C(c3ccc(Cl)c(Cl)c3)CC2c2ccccc2O)n1 (stereo unspecified) -83.2%
O=[N+]([O-])c1ccc(Sc2nc3ccccc3o2)c([N+](=O)[O-])c1 -101%
O=C(Nc1ccc(Nc2ccccc2)cc1)c1cc([N+](=O)[O-])ccc1Cl -101%
CCOC(=O)CSc1nc2c(sc3ccc([N+](=O)[O-])cc32)c(=O)n1Cc1ccco1 -15.3%
